Laboratory results taken from US10487091B2, “Activators of autophagic flux and phospholipase D and clearance of protein aggregates including tau and treatment of proteinopathies” (THE TRUSTEES OF COLUMBIA UNIVERSITY IN THE CITY OF NEW YORK, priority 2015, dated 2019).

Test system: mKate2 tagged Tau
Assay: Tau-mKate2 fluorescence EC50
Assay type: cell-based, Human
Settings: therapeutic index, ratio LC50:EC50, upper limit 200 mM
Procedure: 1) HEK cells with tet-regulated expression of mKate2 tagged Tau were grown in DMEM medium (Dulbecco's Modified Eagle's Medium) containing 0.5 μg/mL doxycycline (Dox)(MP-Bio#198955), after 3-5 days Dox was removed by washing the cells twice with sterile phosphate buffered saline (PBS; Invitrogen#14190-144), cells were left in DMEM without Dox for 72 hours (to further clear remaining Dox in cells).
The test compounds (along with CytoID™ dye and Hoechst stain) were added to the cells and incubated for 3 hours. Reference compounds were also used in each plate, Rapamycin was used for autophagy induction and chloroquine was used for lysosomal inhibition. […] Cells were then washed and read using a fluorescence plate reader. Hoescht, Cyto-ID™ and mKate2 were measured using 3 distinct wavelengths on the plate reader. […] After reading, test compound was re-added and the cells are left for a further 21 hours. At the 24 hour time point cells were once again washed and plates read using the fluorescence plate reader.
5) Treatment plate was then washed quickly 3 times with warm FB-DMEM (100 μL/well). […] At this point, the plate was ready for reading. See details in Reading Plate section. Hoescht was read at Excitation wavelength (Ex)=355 nm & Emission wavelength (Em)=446 nm. mKate2 was read at Ex=575 nm & Em=630 nm. Cyto-ID™ was read at Ex=463 nm & Em=534 nm. […]

Ic1ccc2ncnc(SC3CCCC3)c2c1 [WHYKD30]
TI-mKate2: 180

c1cnc2c(SC3CCCC3)ncnc2c1 [WHYKD36]
TI-mKate2: 64
